Data on three compounds can be found in US8399014B2, “Physiologically active complex comprising protamine and/or salt therefor and an acidic macromolecular substance, and use thereof” (Maruha Nichiro Foods, Inc., priority 2008, dated 2013).

A short description of data set [1]: Sensory test: effect of test substances on reducing the harsh/astringent taste of protamine. The arrangement: species or system human. As to conditions: supernatant/solution of 1:1 mixture with protamine, protamine 10 mg/mL.
Data set [2] can be described thus: Study on concentration of protamine at which the harsh/astringent taste is sensed (sensory test). The arrangement: species or system human.

With `O=C(O)CC(O)C(=O)O` (racemic) [Malic acid, DL-malic acid], the “Aqueous solution (taste)” value in data set [1] is “No effect”.

As to `O=C(O)CC(O)(CC(=O)O)C(=O)O` [Citric acid, citric acid (anhydride)], the “Aqueous solution (taste)” value in data set [1] is recorded as “No effect”. protamine: the “concentration of protamine at which all persons sensed the taste” value in data set [2] (0.5 mL aqueous solution) was found to be 500 µg/mL. In data set [2] (protamine 1,000 μg/mL), the “persons who had a feeling of discomfort” value turned out to be 80%.
